Results are given in words; binding and its absence hold for the method and conditions named. Binding seen in cells or lysates may run through a third protein. Some entries that bind do so weakly or less than the wild type.
Biological target: Acyl-CoA Synthetase Long-chain Family Member 4 (ACSL4) (mouse (endogenous in BV2)) (UniProt Q9QUJ7)
Assay: co-IP; BV2 cells lysed in RIPA buffer, lysate at 1 mg/ml, pre-cleared, primary antibody overnight at 4°C, agarose beads, washed with RIPA + 0.1% Triton X-100, blotted; cells treated with LPS (1 μg/ml, 12 h) with or without siHK2 or siISG15 (24 h); which protein was precipitated is not told

Amino acid sequences for entries named in this document (tags omitted). Residues count along the entry.
UniProt Q9QUJ7: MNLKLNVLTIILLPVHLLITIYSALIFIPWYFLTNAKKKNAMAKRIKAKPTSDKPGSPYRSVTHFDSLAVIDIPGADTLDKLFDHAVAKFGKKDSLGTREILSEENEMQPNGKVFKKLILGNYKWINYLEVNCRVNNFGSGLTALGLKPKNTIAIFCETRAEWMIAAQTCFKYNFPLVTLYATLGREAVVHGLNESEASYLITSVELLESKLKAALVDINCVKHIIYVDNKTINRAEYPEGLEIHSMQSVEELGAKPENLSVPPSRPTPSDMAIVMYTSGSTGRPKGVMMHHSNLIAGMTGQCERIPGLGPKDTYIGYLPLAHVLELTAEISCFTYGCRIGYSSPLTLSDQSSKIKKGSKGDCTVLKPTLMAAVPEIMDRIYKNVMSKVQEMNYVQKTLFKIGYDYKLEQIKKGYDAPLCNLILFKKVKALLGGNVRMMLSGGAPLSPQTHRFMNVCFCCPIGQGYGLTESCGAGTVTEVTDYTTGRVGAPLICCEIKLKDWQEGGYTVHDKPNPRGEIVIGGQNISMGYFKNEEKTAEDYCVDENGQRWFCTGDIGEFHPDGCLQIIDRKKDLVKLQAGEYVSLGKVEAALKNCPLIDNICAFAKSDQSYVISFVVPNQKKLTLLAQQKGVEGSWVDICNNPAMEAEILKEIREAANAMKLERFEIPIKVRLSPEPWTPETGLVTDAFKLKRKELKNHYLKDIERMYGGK
UniProt Q64339, residues 1-155: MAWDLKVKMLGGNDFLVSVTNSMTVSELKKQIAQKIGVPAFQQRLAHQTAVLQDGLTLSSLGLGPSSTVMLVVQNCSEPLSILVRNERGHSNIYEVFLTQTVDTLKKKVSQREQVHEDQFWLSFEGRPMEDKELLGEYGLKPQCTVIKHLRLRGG

binding: binds
Substance: interferon-stimulated gene 15 (ISG15) (from UniProt Q64339 1-155)

Reference: PMC12018552
